Experimental data reported in the supplement of paper PMC10849652.
The list shows a part of the results.

Sequences of proteins named here, by UniProt entry; tags and fusion partners are left off. A change or cut given only in a name is not applied to a line headed by its entry.
UniProt Q92945: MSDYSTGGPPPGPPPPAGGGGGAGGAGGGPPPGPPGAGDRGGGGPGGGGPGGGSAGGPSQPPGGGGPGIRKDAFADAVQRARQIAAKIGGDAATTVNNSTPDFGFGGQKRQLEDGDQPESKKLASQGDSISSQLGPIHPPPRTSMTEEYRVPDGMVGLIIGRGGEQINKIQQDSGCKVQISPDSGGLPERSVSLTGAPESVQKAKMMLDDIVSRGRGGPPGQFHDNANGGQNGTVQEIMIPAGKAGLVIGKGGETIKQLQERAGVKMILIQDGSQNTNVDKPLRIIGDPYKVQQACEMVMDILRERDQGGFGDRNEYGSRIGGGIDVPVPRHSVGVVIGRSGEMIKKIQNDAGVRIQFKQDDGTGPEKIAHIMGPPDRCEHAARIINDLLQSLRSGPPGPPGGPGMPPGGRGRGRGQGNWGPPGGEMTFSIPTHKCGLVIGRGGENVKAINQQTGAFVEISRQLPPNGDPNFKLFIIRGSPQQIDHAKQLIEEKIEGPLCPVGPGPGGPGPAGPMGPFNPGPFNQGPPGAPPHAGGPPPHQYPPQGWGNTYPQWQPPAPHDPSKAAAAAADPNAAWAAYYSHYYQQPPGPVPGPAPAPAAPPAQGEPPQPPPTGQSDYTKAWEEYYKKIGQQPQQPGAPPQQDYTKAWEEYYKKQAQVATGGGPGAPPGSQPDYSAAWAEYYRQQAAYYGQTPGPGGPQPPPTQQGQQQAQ
UniProt Q06136: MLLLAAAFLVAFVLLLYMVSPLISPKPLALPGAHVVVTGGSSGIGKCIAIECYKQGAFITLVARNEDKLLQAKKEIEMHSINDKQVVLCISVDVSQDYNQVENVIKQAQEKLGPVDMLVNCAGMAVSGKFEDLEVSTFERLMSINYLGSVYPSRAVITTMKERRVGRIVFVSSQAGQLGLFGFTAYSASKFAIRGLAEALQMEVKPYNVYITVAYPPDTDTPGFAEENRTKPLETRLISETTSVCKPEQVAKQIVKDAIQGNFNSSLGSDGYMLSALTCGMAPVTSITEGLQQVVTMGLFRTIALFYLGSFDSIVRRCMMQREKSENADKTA
UniProt P01042: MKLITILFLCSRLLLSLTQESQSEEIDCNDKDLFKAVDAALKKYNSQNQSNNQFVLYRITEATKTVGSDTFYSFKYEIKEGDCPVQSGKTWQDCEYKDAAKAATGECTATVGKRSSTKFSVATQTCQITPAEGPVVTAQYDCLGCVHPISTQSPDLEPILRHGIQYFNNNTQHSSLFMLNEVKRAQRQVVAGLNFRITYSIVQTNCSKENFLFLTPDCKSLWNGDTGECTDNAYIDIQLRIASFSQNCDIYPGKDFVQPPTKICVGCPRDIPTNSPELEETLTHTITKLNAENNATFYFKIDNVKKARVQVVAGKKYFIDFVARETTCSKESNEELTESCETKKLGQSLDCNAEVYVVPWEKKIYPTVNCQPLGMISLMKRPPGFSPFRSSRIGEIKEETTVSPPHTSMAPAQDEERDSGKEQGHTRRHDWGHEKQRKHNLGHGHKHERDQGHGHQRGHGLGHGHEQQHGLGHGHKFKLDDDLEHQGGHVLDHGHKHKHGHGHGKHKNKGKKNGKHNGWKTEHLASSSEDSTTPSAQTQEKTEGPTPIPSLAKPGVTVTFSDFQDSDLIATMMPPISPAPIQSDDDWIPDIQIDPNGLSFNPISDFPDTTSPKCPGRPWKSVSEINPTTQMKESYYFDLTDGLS
UniProt Q8IYS2: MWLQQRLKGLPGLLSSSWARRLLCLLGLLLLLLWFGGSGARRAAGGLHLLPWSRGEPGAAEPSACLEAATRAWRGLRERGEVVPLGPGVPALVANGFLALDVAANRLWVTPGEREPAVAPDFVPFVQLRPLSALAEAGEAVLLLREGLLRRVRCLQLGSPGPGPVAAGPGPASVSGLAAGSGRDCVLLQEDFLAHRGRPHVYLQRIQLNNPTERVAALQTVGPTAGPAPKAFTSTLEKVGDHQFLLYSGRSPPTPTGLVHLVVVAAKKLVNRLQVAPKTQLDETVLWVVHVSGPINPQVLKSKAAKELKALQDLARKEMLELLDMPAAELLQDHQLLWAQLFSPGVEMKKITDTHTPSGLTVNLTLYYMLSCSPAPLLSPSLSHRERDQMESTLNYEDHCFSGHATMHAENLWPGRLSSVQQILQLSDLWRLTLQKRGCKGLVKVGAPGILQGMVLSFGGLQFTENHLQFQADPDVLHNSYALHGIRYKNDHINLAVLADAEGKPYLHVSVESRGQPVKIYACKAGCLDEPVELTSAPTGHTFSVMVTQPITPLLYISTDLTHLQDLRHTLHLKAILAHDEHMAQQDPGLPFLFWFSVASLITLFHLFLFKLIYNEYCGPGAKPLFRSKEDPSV
UniProt Q02241: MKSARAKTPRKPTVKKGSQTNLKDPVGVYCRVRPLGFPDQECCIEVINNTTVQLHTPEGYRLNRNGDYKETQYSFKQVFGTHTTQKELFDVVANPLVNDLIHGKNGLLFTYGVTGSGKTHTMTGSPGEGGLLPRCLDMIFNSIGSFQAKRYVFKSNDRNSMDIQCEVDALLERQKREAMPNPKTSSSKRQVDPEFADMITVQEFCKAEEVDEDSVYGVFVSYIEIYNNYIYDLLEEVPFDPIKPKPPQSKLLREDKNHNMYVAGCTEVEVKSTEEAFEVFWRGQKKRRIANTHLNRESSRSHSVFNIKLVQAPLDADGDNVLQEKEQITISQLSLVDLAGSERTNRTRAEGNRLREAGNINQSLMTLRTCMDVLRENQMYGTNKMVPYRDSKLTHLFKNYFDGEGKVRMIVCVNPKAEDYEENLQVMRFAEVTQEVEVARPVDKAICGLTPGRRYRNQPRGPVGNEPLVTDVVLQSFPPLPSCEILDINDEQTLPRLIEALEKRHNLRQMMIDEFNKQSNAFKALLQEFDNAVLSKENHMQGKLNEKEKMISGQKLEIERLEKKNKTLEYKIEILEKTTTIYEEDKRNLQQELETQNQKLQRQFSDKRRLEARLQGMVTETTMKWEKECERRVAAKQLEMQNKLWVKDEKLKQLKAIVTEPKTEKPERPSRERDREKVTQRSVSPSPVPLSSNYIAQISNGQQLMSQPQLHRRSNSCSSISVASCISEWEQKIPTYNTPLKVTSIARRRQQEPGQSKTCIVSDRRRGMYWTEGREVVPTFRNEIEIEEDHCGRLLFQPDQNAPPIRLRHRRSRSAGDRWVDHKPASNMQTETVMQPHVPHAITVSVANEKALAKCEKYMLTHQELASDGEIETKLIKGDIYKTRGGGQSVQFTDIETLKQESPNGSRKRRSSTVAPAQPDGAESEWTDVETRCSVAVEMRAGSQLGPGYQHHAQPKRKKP
UniProt P50053: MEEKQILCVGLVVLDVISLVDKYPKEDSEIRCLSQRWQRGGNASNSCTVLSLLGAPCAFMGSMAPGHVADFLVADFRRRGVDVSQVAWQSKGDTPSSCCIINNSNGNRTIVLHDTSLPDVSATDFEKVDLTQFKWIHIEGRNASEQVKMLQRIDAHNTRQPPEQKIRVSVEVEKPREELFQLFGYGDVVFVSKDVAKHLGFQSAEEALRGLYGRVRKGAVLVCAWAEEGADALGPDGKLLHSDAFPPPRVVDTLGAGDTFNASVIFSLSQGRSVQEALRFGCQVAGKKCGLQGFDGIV
UniProt Q13303: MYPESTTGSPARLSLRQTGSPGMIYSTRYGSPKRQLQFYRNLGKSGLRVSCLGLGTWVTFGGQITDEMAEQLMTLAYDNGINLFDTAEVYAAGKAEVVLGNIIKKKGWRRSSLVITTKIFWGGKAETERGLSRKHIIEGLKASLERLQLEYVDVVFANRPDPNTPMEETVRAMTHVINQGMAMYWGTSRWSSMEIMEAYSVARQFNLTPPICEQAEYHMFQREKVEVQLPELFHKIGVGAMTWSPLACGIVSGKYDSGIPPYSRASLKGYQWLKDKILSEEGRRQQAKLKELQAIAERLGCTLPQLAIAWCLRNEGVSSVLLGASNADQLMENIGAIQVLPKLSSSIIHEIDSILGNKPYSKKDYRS
UniProt Q674X7: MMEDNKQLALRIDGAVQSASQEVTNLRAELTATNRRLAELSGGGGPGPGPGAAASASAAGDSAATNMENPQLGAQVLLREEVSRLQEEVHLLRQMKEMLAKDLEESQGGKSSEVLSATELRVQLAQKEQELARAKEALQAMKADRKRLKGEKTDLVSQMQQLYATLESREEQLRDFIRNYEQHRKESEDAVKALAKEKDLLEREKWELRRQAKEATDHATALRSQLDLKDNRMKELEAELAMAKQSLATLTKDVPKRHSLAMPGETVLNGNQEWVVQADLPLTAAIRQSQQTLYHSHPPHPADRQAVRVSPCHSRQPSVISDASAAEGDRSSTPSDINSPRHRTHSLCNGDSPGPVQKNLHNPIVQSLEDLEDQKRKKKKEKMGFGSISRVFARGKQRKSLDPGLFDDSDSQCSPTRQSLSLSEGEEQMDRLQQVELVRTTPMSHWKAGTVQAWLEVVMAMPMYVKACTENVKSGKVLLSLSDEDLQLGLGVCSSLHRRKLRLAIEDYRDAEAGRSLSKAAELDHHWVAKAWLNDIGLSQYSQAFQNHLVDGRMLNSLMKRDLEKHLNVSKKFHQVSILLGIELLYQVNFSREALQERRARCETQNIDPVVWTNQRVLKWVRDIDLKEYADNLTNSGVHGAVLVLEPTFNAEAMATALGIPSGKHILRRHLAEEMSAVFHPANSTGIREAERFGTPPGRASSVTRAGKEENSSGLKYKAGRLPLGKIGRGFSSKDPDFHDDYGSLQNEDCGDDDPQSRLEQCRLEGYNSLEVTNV
UniProt Q9ULH0: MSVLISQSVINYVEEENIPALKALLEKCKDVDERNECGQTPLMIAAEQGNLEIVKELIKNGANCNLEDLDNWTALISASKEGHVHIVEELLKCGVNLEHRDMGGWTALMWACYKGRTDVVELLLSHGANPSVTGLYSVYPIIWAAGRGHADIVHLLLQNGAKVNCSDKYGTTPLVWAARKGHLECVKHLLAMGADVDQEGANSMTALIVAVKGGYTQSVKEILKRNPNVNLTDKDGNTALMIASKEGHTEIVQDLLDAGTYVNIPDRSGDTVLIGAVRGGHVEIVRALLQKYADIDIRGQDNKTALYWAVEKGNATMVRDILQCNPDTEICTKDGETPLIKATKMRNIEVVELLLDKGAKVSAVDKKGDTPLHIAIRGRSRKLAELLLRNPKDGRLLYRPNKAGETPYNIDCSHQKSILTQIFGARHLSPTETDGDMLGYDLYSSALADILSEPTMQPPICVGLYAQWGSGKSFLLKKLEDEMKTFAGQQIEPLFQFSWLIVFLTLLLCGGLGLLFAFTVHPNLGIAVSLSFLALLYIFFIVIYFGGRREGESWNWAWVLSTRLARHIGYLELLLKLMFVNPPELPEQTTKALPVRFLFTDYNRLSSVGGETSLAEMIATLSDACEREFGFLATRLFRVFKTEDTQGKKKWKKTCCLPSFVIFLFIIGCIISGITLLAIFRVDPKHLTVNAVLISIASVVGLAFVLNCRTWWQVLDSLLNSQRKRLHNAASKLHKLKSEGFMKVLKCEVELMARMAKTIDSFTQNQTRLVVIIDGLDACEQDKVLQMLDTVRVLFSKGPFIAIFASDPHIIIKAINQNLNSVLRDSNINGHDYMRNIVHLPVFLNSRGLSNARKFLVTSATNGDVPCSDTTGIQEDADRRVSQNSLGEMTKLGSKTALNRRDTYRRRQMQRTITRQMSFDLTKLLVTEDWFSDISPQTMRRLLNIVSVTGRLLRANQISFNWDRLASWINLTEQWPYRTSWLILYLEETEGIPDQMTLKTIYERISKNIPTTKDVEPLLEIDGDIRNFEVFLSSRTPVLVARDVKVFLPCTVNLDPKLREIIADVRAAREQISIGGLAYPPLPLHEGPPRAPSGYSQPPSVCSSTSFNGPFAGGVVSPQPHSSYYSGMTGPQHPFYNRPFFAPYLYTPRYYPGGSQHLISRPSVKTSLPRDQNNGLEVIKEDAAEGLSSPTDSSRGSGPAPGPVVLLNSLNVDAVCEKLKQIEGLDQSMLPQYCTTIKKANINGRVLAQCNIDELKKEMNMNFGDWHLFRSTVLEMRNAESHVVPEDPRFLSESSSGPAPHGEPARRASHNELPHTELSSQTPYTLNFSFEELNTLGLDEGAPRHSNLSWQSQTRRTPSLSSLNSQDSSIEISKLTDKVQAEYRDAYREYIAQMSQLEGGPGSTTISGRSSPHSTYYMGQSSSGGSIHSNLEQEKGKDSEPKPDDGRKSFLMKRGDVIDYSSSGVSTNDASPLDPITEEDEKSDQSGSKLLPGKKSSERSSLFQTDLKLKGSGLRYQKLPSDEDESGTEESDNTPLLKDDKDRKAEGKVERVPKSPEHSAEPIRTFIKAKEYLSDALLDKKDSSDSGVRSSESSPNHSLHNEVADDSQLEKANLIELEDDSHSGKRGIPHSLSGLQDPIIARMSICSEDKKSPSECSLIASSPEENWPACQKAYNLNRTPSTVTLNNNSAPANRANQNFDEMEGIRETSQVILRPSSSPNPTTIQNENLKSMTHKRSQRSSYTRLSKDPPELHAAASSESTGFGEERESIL

Columns and labels:
Assay in all cases: log2 fold change, soluble protein after heating vs DMSO (PISA); higher = thermal stabilisation; K562 cells, 10 uM, 30 min; active = over 0.2 and 3.5 SD of the protein, either way, in both replicates (recomputed)
[1] = compound: CN1CCN(CCOc2cc(OC3CCOCC3)c3c(Nc4c(Cl)ccc5c4OCO5)ncnc3c2)CC1 [saracatinib]
Procedure, shortened: (§1)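 K562 cells at 2×10^6 cells/mL were given 10 μM compound for 30 min. Aliquots then went through 3 min of heating across 48°C-58°C, were pooled, and were extracted in PBS with 0.5% NP-40 at 4°C, and the supernatant after 21,000xg for 90 min was quantified by TMTpro 16plex LC-MS/MS with channel sums equalised. Thermal stability relative to control samples, from duplicates, is given as log2 fold change.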

[2] = compound: CN1CCN(c2nc(C3=C(c4c[nH]c5ccccc45)C(=O)NC3=O)c3ccccc3n2)CC1 [sotrastaurin]
Procedure, shortened: as §1

[3] = compound: CN1CC[C@H](c2c(O)cc(O)c3c(=O)cc(-c4ccccc4Cl)oc23)[C@H](O)C1 [alvocidib]
Procedure, shortened: as §1

[4] = compound: CN1CCc2c(c3ccccc3n2Cc2ccc(C(=O)NO)cc2)C1 [Tubastatin A]
Procedure, shortened: as §1

[5] = compound: CNC(=O)C1=CC=CC=C1NC2=NC(=NC=C2Cl)NC3=C(C=C(C=C3)N4CCOCC4)OC
Procedure, shortened: as §1

[6] = compound: CNC(=O)c1ccc(Nc2ncc(C(F)(F)F)c(NCc3nccnc3N(C)S(C)(=O)=O)n2)cc1 [defactinib]
Procedure, shortened: as §1

[7] = compound: CNCc1ccc(-c2[nH]c3cc(F)cc4c3c2CCNC4=O)cc1 [rucaparib]
Procedure, shortened: as §1

[8] = compound: CNc1nc(-c2ccc3c(N)n[nH]c3c2)cc(N2C[C@@H](C(=O)NC3CCCCC3)CC[C@H]2C)n1
Procedure, shortened: as §1

[9] = compound: COC(=O)N[C@@H](C)CNc1nccc(-c2cn(C(C)C)nc2-c2cc(Cl)cc(NS(C)(=O)=O)c2F)n1 [encorafenib]
Procedure, shortened: as §1

[10] = compound: COC(=O)[C@H](CCSC)NC(=O)C1=C(C=C(C=C1)NC[C@H](CS)N)C2=CC=CC=C2
Procedure, shortened: as §1

[11] = compound: COC1=CC=C(C=C1)CN2C=CC3=C2C=C(C=C3)C(=O)NO
Procedure, shortened: as §1

[12] = compound: CON(C)C(=O)N1N=C(c2cc(F)ccc2F)S[C@@]1(CCCN)c1ccccc1 [filanesib]
Procedure, shortened: as §1

[13] = compound: CO[C@H]1C[C@@H]2CC[C@@H](C)[C@@](O)(O2)C(=O)C(=O)N2CCCC[C@H]2C(=O)O[C@H]([C@H](C)C[C@@H]2CC[C@H](n3cnnn3)[C@H](OC)C2)CC(=O)[C@H](C)/C=C(\C)[C@@H](O)[C@@H](OC)C(=O)[C@H](C)C[C@H](C)/C=C/C=C/C=C/1C [zotarolimus]
Procedure, shortened: as §1

[14] = compound: COc1cc(C(=O)O)ccc1NC(=O)[C@@H]1N[C@@H](CC(C)(C)C)[C@](C#N)(c2ccc(Cl)cc2F)[C@H]1c1cccc(Cl)c1F [idasanutlin]
Procedure, shortened: as §1

[15] = compound: COc1cc(Nc2ncc3c(n2)-c2ccc(Cl)cc2C(c2c(F)cccc2OC)=NC3)ccc1C(=O)O [alisertib]
Procedure, shortened: as §1

[16] = compound: COc1cc2nc(-c3cc(F)ccc3O)nc(N[C@@H]3CNC[C@H]3C(C)(C)O)c2cc1OC
Procedure, shortened: as §1

[17] = compound: COc1cc2ncnc(Nc3ccc(F)c(Cl)c3)c2cc1OCCCN1CCOCC1 [gefitinib]
Procedure, shortened: as §1

[18] = compound: COc1cccc2cc(-c3nc([C@H]4CC[C@H](C(=O)O)CC4)n4ncnc(N)c34)[nH]c12
Procedure, shortened: as §1

[19] = compound: CS(=O)(=O)CCNCc1ccc(-c2ccc3ncnc(Nc4ccc(OCc5cccc(F)c5)c(Cl)c4)c3c2)o1 [lapatinib]
Procedure, shortened: as §1

[20] = compound: CS(=O)(=O)N1CCN(Cc2cc3nc(-c4cccc5[nH]ncc45)nc(N4CCOCC4)c3s2)CC1 [pictilisib]
Procedure, shortened: as §1

Measured: log2 fold change

KHSRP (UniProt Q92945)
inactive: [1] 0.015 | [2] 0.05 | [3] 0.01 | [4] -0.037 | [5] 0.001 | [6] 0 | [7] -0.048 | [8] -0.051 | [9] -0.037 | [10] 0.024 | [11] -0.055 | [12] -0.022 | [13] -0.033 | [14] -0.011 | [15] -0.049 | [16] 0.03 | [17] 0.014 | [18] 0.066 | [19] -0.042 | [20] 0.009

KIF2A isoform 4 (UniProt O00139)
inactive: [1] -0.068 | [2] -0.042 | [3] 0.049 | [4] 0 | [5] -0.039 | [6] 0.131 | [7] 0.228 | [8] 0.067 | [9] 0.112 | [10] 0.009 | [11] -0.031 | [12] 0.202 | [13] 0.025 | [14] 0.05 | [15] -0.066 | [16] 0.038 | [17] 0.002 | [18] -0.066 | [19] 0.039 | [20] -0.004

KDSR (UniProt Q06136)
inactive: [1] 0.149 | [2] -0.006 | [3] -0.028 | [4] -0.003 | [5] -0.027 | [6] -0.004 | [7] -0.017 | [8] 0.005 | [9] 0.005 | [10] -0.018 | [11] 0.014 | [12] -0.044 | [13] -0.05 | [14] -0.041 | [15] -0.038 | [16] 0.007 | [17] -0.011 | [18] 0.029 | [19] 0.023 | [20] -0.045

Copied from the entries so far (2 entries):
KIF2A isoform 4 (UniProt O00139)
inactive: [1] -0.068 | [2] -0.042 | [3] 0.049 | [4] 0 | [5] -0.039 | [6] 0.131 | [7] 0.228 | [8] 0.067 | [9] 0.112 | [10] 0.009 | [11] -0.031 | [12] 0.202 | [13] 0.025 | [14] 0.05 | [15] -0.066 | [16] 0.038 | [17] 0.002 | [18] -0.066 | [19] 0.039 | [20] -0.004

KDSR (UniProt Q06136)
inactive: [1] 0.149 | [2] -0.006 | [3] -0.028 | [4] -0.003 | [5] -0.027 | [6] -0.004 | [7] -0.017 | [8] 0.005 | [9] 0.005 | [10] -0.018 | [11] 0.014 | [12] -0.044 | [13] -0.05 | [14] -0.041 | [15] -0.038 | [16] 0.007 | [17] -0.011 | [18] 0.029 | [19] 0.023 | [20] -0.045

(next part)

KARS1 (UniProt Q15046)
inactive: [1] -0.017 | [2] 0.026 | [3] 0.139 | [4] 0 | [5] 0.003 | [6] 0.144 | [7] 0.267 | [8] -0.018 | [9] 0.051 | [10] 0.033 | [11] -0.094 | [12] 0.16 | [13] -0.028 | [14] 0.117 | [15] -0.084 | [16] -0.024 | [17] -0.024 | [18] -0.062 | [19] 0.032 | [20] -0.113

KNG1 (UniProt P01042)
inactive: [1] 0.049 | [2] 0.22 | [3] 0.083 | [4] -0.16 | [5] 0.052 | [6] -0.023 | [7] -0.206 | [8] -0.008 | [9] -0.005 | [10] 0.104 | [11] -0.152 | [12] 0.062 | [13] -0.142 | [14] 0.129 | [15] -0.128 | [16] -0.09 | [17] 0.138 | [18] 0.326 | [19] -0.024 | [20] 0.013

KMT2D isoform 3 (UniProt O14686)
inactive: [1] -0.072 | [2] -0.073 | [3] -0.071 | [4] -0.13 | [5] 0.033 | [6] -0.03 | [7] 0.232 | [8] 0.081 | [9] 0.036 | [10] -0.105 | [11] -0.129 | [12] 0.131 | [13] 0.034 | [14] 0.135 | [15] -0.111 | [16] 0.096 | [17] -0.003 | [18] 0.057 | [19] -0.016 | [20] 0.024

KIAA2013 isoform 2 (UniProt Q8IYS2)
inactive: [1] 0.072 | [2] 0.067 | [3] 0.049 | [4] -0.003 | [5] -0.016 | [6] -0.011 | [7] -0.04 | [8] 0.003 | [9] -0.044 | [10] 0.026 | [11] -0.04 | [12] -0.048 | [13] 0.002 | [14] -0.077 | [15] -0.005 | [16] 0.062 | [17] 0.015 | [18] 0.065 | [19] -0.074 | [20] -0.034

KCTD15 (UniProt Q96SI1)
inactive: [1] 0.008 | [2] 0.122 | [3] 0.086 | [4] -0.05 | [5] -0.004 | [6] 0.015 | [7] -0.04 | [8] -0.045 | [9] -0.009 | [10] 0.018 | [11] -0.154 | [12] 0.151 | [13] -0.051 | [14] 0.011 | [15] -0.065 | [16] 0.046 | [17] 0.061 | [18] 0.052 | [19] -0.019 | [20] 0.05

KIF23 (UniProt Q02241)
inactive: [1] 0.112 | [2] -0.097 | [3] -0.229 | [4] -0.032 | [5] -0.177 | [6] -0.054 | [7] 0.129 | [8] -0.036 | [9] 0.091 | [10] 0.048 | [11] 0.009 | [12] 0.043 | [13] 0.056 | [14] 0.096 | [15] 0.118 | [16] 0.047 | [17] -0.033 | [18] 0.022 | [19] -0.072 | [20] -0.043

KHK isoform 2 (UniProt P50053)
inactive: [1] 0.026 | [2] 0.026 | [3] -0.006 | [4] -0.036 | [5] 0.016 | [6] 0.006 | [7] -0.053 | [8] -0.009 | [9] 0.04 | [10] 0.012 | [11] 0.024 | [12] 0.04 | [13] -0.072 | [14] -0.038 | [15] -0.03 | [16] -0.054 | [17] -0.039 | [18] 0.044 | [19] -0.001 | [20] -0.027

KCTD3 (UniProt Q9Y597)
inactive: [1] -0.035 | [2] 0.039 | [3] 0.024 | [4] 0.032 | [5] 0.006 | [6] 0.004 | [7] 0.018 | [8] -0.019 | [9] -0.052 | [10] 0.049 | [11] -0.018 | [12] 0.05 | [13] -0.045 | [14] 0.104 | [15] 0.006 | [16] 0.102 | [17] 0.002 | [18] 0.016 | [19] 0 | [20] -0.039

KCNAB2 (UniProt Q13303)
inactive: [1] 0.012 | [2] 0.032 | [3] -0.017 | [4] -0.075 | [5] -0.022 | [6] 0.044 | [7] -0.097 | [8] -0.038 | [9] 0.021 | [10] -0.065 | [11] -0.055 | [12] 0.044 | [13] 0.007 | [14] -0.088 | [15] -0.082 | [16] 0.026 | [17] -0.03 | [18] 0.092 | [19] 0.002 | [20] 0.08

KNSTRN (UniProt Q9Y448)
inactive: [1] -0.03 | [2] -0.156 | [3] 0.037 | [4] 0.065 | [5] -0.014 | [6] 0.015 | [7] 0.171 | [8] 0.056 | [9] 0.086 | [10] -0.153 | [11] -0.01 | [12] 0.103 | [13] -0.009 | [14] 0.151 | [15] -0.092 | [16] 0.033 | [17] 0.006 | [18] -0.101 | [19] 0.005 | [20] 0.033

KLC4 isoform 3 (UniProt Q9NSK0)
inactive: [1] 0.026 | [2] -0.044 | [3] -0.027 | [4] 0.02 | [5] 0.037 | [6] -0.038 | [7] -0.031 | [8] -0.011 | [9] 0.036 | [10] 0.073 | [11] 0.186 | [12] -0.013 | [13] 0.043 | [14] -0.022 | [15] -0.072 | [16] -0.113 | [17] 0.058 | [18] -0.068 | [19] 0.036 | [20] -0.017

KAZN isoform 3 (UniProt Q674X7)
inactive: [1] 0.037 | [2] -0.012 | [3] -0.011 | [4] 0.023 | [5] 0.004 | [6] -0.084 | [7] -0.11 | [8] -0.096 | [9] -0.01 | [10] 0.058 | [11] -0.095 | [12] -0.05 | [13] -0.153 | [14] 0.011 | [15] 0.065 | [16] -0.037 | [17] 0.028 | [18] 0.017 | [19] 0.015 | [20] -0.021

KIDINS220 (UniProt Q9ULH0)
inactive: [1] 0.02 | [2] -0.031 | [3] -0.032 | [4] 0.001 | [5] -0.009 | [6] -0.016 | [7] 0.047 | [8] -0.021 | [9] 0.008 | [10] -0.002 | [11] 0.001 | [12] 0.067 | [13] 0.002 | [14] -0.02 | [15] -0.054 | [16] 0.074 | [17] 0.017 | [18] -0.003 | [19] 0.028 | [20] 0.024
